Values of other authors, collected in US5631263A, “Use of delta opioid receptor antagonists to treat immunoregulatory disorders” (Minneapolis Medical Research Foundation, priority 1995, dated 1997).
At least one read-out could not be matched to a standard name with certainty.

Test system: mouse vas deferens (MVD) and guinea pig ileum (GPI) preparations
Settings: only at 5 nM or less; cited from earlier work

CN1CC[C@]23c4c5ccc(O)c4O[C@H]2c2[nH]c4ccccc4c2C[C@@]3(O)[C@H]1C5 [Compound 7]
agonist effect of compound 7: below 20%
